# Data as given in PMC7567072.
# Sequences of proteins named here, by UniProt entry; tags and fusion partners are left off. Residues count along the entry.
# UniProt P25705, residues 44-553: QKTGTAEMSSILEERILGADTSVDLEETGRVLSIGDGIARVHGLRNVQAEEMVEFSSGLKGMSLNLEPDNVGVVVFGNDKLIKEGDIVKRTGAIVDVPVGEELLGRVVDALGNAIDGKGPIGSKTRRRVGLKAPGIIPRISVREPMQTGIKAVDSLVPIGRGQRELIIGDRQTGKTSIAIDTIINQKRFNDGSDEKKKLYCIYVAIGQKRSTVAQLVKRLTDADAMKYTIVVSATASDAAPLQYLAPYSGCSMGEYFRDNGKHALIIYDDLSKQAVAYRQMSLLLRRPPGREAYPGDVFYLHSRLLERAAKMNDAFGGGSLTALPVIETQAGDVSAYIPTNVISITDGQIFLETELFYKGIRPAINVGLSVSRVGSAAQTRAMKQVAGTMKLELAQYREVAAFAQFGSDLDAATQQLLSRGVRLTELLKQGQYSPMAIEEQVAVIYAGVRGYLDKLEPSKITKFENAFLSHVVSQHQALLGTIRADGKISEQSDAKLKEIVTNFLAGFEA
# UniProt O75964: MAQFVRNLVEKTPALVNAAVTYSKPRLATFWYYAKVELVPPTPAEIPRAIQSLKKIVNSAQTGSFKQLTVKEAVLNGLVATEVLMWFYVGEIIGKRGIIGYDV
# UniProt P24539, residues 43-256: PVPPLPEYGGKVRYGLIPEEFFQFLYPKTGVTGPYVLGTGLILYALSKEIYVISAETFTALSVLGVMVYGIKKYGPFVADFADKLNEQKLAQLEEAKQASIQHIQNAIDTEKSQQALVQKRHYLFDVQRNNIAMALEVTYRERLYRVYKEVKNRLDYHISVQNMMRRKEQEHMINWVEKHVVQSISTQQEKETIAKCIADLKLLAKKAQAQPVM
# These are yes or no findings as the source states them, for the method shown. Binding seen in cells or lysates may run through a third protein. These calls come from enrichment with a bait or labelling near it, and not all partners need be listed. Sequences can lack the tags named with a protein.
# Molecular target: T1, FLAG-tagged HPV8-E7 (pCMV2-HPV8-E7-FLAG), in C33a cells (human papillomavirus type 8 (HPV8)) (UniProt P06430)
# T1 sequence: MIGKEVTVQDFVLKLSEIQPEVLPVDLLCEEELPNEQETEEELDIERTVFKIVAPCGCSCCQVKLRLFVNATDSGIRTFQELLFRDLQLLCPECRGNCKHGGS
# Experiment: affinity purification with mass spectrometry; Co-IP of FLAG-tagged HPV8-E7 from transfected C33a cells, bound cellular proteins by LC-MS/MS (LFQ); cut-off more than twofold and p < 0.05
row,Substance,binding
1,"ATP5A1, subunit of the mitochondrial ATP synthase, in C33a cells (from UniProt P25705 44-553)",binds
2,"ATP5L, subunit of the mitochondrial ATP synthase, in C33a cells (from UniProt O75964 1-103)",binds
3,"ATP5F1, subunit of the mitochondrial ATP synthase, in C33a cells (from UniProt P24539 43-256)",binds
4,"ATP5B, beta subunit of the mitochondrial ATP synthase, in C33a cells (from UniProt P06576 48-529)",binds
